Data as given in PubChem BioAssay AID652243 (Drosophila RNAi Screening Center, 2013)
The screen tested about 24,000 reagents; below is a random part of those that have a named target and a result. Over the whole deposit, 246 (1%) got an active call. 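Plates not normalised; calls are printed but the firefly/Renilla ratio behind them is not deposited; fold cut for lowering reported inconsistently.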 Raw values are not corrected between plates. The numbers tell different reagents against one gene apart. Names joined by + are all predicted targets of the reagent. Not stated in the record: the amount of reagent.

- Test: 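Fly regulators of androgen-dependent reporter output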 (primary screen)
- System: Drosophila S2R+ cells
- Reagent: long dsRNA against Drosophila genes
- Duration: 72 h (48 h, then 24 h hormone)
- Treatment: synthetic androgen R1881 at 10 nM for 24 h
- Read-out: 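Firefly light from an androgen-responsive reporter and Renilla control light per well, raw and unnormalised, for each of two replicates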
- Direction: firefly reporter light: higher = more light from androgen-responsive reporter; Renilla control light: higher = more constitutive control signal (cell number, transfection)
- Hit rule: 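Hit when the log firefly-to-Renilla ratio dropped or increased by a fixed fold versus the mean of GFP or LacZ controls across duplicate plates; lowering cut given as 1.5 and as 3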
- Meaning of the calls: active = hit: reporter lowered or raised; inactive = no hit

Gene | reagent | firefly reporter light, replicate 1 | firefly reporter light, replicate 2 | Renilla control light, replicate 1 | Renilla control light, replicate 2 | Call
ND-18 | 1 | 92582 | 1.08e5 | 4.32e5 | 3.35e5 | inactive
CG34448 | 1 | 3.05e5 | 3.25e5 | 6.15e5 | 6.85e5 | inactive
GABA-B-R2 | 1 | 4.69e5 | 5.20e5 | 1.46e6 | 1.47e6 | inactive
GABA-B-R2 | 2 | 3.85e5 | 3.55e5 | 7.60e5 | 7.72e5 | inactive
Adf1 | 1 | 1.41e5 | 1.43e5 | 2.87e5 | 3.00e5 | inactive
Adf1 | 2 | 1.12e6 | 1.00e6 | 3.29e6 | 2.79e6 | inactive
UGP | 1 | 9.69e5 | 1.03e6 | 1.49e6 | 1.45e6 | inactive
CG6870 | 1 | 1.19e5 | 1.32e5 | 1.62e6 | 1.37e6 | inactive
CG6870 | 2 | 7.57e5 | 8.71e5 | 8.09e5 | 8.52e5 | inactive
lncRNA:sphinx + ATPsynF | 1 | 8.56e5 | 7.46e5 | 1.33e6 | 8.09e5 | inactive
Eip63F-1 | 1 | 2.41e5 | 2.52e5 | 2.69e6 | 3.50e6 | inactive
Eip63F-1 | 2 | 5.27e5 | 4.56e5 | 6.06e5 | 4.53e5 | inactive
Nplp4 | 1 | 1.39e5 | 1.58e5 | 9.71e5 | 1.13e6 | inactive
CG14669 | 1 | 54299 | 65914 | 1.08e6 | 1.21e6 | inactive
CG14669 | 2 | 3.93e5 | 4.16e5 | 4.64e5 | 3.08e5 | inactive
Sara | 1 | 1.95e5 | 2.97e5 | 1.26e6 | 1.42e6 | inactive
Jon66Ci | 1 | 1.48e5 | 1.25e5 | 1.74e6 | 1.53e6 | inactive
Jon66Ci | 2 | 2.94e5 | 2.58e5 | 8.68e5 | 7.81e5 | inactive
BomT3 | 1 | 2.71e5 | 2.80e5 | 2.40e6 | 3.44e6 | inactive
BomT3 | 2 | 6.68e5 | 7.57e5 | 6.58e5 | 7.26e5 | inactive
gkt | 1 | 1.12e5 | 1.42e5 | 1.06e6 | 1.01e6 | inactive
CG5262 | 1 | 14383 | 11043 | 1.19e5 | 1.58e5 | inactive
CG3939 | 1 | 3.01e5 | 4.42e5 | 4.37e6 | 3.18e6 | inactive
Cap-D2 | 1 | 86808 | 68366 | 9.24e5 | 5.52e5 | inactive
Cap-D2 | 2 | 7.21e5 | 5.79e5 | 7.85e5 | 9.23e5 | inactive
CG15256 | 1 | 1.61e5 | 1.47e5 | 1.72e6 | 2.00e6 | inactive
CG7443 | 1 | 69111 | 81361 | 1.83e6 | 1.71e6 | inactive
CG40191 | 1 | 7.06e5 | 7.18e5 | 3.35e6 | 2.88e6 | inactive
CG17359 | 1 | 3.30e5 | 2.03e5 | 2.09e6 | 1.04e6 | inactive
CG17359 | 2 | 8.09e5 | 7.35e5 | 5.98e5 | 6.23e5 | inactive
CG3635 | 1 | 1.80e5 | 2.03e5 | 1.55e6 | 1.25e6 | inactive
CCKLR-17D3 | 1 | 1.16e5 | 79776 | 1.41e5 | 45339 | inactive
CCKLR-17D3 | 2 | 3.01e5 | 1.60e5 | 1.04e6 | 3.57e5 | inactive
CCKLR-17D3 | 3 | 6.82e5 | 8.19e5 | 1.12e6 | 1.19e6 | inactive
CG5386 | 1 | 4.67e5 | 5.14e5 | 4.99e5 | 6.96e5 | inactive
Acsx1R | 1 | 2.71e5 | 2.90e5 | 2.94e6 | 2.97e6 | inactive
CG14606 | 1 | 46414 | 45205 | 1.13e6 | 1.03e6 | inactive
CycB3 | 1 | 1.46e5 | 1.53e5 | 1.74e6 | 1.38e6 | inactive

Looked up above.
CG5262, Call: inactive
Value for CG17359 #1 under “Call”: inactive
Result of CG14606 in “firefly reporter light, replicate 2”: 45205
Result for Sara in “firefly reporter light, replicate 2”: 2.97e5
Result for CG3635 in “Renilla control light, replicate 2”: 1.25e6
Result for lncRNA:sphinx + ATPsynF under “Renilla control light, replicate 1”: 1.33e6

Continued:
Gene | reagent | firefly reporter light, replicate 1 | firefly reporter light, replicate 2 | Renilla control light, replicate 1 | Renilla control light, replicate 2 | Call
Kap-alpha1 | 1 | 2.38e5 | 2.23e5 | 1.98e6 | 2.24e6 | inactive
CG15014 | 1 | 1.45e5 | 1.14e5 | 1.69e6 | 1.19e6 | inactive
CG15014 | 2 | 5.42e5 | 6.80e5 | 8.88e5 | 8.06e5 | inactive
Or74a | 1 | 2.07e5 | 2.04e5 | 1.59e6 | 1.34e6 | inactive
CG31268 | 1 | 1.50e5 | 2.04e5 | 2.30e5 | 3.06e5 | inactive
mthl13 | 1 | 2.13e5 | 98629 | 5.53e5 | 6.09e5 | inactive
Nipped-A | 1 | – | – | – | – | inactive
Nipped-A | 2 | 5.18e5 | 4.37e5 | 2.38e6 | 2.07e6 | inactive
Nipped-A | 3 | 2.69e5 | 6.28e5 | 1.10e6 | 1.93e6 | inactive
Nipped-A | 4 | 1.30e5 | 1.56e5 | 9.86e5 | 1.59e6 | inactive
Nipped-A | 5 | 8.88e5 | 9.48e5 | 2.74e6 | 2.47e6 | inactive
CG13856 | 1 | 2.43e5 | 2.39e5 | 2.76e6 | 3.13e6 | inactive
CG15365 | 1 | 9.93e5 | 1.09e6 | 8.50e5 | 9.27e5 | inactive
Lcp65Ac | 1 | 2.19e5 | 1.83e5 | 2.93e6 | 2.08e6 | inactive
Lcp65Ac | 2 | 7.21e5 | 6.63e5 | 5.78e5 | 6.61e5 | inactive
frm | 1 | 6.39e5 | 6.79e5 | 1.98e6 | 1.46e6 | inactive
frm | 2 | 1.07e6 | 1.14e6 | 1.13e6 | 9.84e5 | inactive
frm | 3 | 8.63e5 | 8.27e5 | 1.73e6 | 2.15e6 | inactive
CG6067 | 1 | 91308 | 1.98e5 | 1.58e6 | 1.50e6 | inactive
CG7384 | 1 | 1.09e6 | 1.22e6 | 2.09e6 | 2.56e6 | inactive
